This passage reports binding results from paper doi:10.1101/2022.06.30.498349.

Sequences of proteins named here, by UniProt entry; tags and fusion partners are left off.
UniProt P42227: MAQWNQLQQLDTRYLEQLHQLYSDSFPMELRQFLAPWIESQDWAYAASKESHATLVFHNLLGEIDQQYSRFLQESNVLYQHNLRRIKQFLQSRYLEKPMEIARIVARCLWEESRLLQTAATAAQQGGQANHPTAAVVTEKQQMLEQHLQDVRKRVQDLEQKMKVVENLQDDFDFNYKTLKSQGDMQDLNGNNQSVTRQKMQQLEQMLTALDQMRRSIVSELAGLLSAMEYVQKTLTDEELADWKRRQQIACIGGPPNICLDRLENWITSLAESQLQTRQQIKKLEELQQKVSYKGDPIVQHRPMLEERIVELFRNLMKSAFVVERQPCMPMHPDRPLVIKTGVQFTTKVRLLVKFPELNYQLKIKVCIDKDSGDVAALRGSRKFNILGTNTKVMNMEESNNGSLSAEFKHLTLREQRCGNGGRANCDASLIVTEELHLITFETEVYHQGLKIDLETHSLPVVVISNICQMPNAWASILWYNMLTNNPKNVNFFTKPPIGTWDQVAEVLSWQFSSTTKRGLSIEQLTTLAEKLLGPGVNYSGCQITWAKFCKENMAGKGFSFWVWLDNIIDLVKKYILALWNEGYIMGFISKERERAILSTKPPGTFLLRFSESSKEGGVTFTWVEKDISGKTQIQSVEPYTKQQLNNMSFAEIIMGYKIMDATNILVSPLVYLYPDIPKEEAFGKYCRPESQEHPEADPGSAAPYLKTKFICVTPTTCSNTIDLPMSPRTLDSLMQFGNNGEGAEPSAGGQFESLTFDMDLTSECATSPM
UniProt P46938: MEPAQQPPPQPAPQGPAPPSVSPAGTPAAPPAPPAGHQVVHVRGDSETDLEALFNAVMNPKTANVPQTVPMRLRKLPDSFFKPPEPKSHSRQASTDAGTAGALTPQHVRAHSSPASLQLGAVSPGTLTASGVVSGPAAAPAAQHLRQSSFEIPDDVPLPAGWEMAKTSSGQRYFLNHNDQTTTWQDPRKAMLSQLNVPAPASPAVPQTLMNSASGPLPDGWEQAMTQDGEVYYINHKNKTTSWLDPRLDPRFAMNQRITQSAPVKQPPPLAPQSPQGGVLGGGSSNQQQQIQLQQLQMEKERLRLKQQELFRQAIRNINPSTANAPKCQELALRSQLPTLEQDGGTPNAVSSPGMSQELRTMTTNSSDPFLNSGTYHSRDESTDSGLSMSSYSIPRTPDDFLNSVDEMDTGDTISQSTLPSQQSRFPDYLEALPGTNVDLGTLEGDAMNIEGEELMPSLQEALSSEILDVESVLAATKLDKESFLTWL

Results are given in words; binding and its absence hold for the method and conditions named. Binding seen in cells or lysates may run through a third protein. Some results given as binding are weak or reduced against the parent protein; the word gives no strength.

This assay has as its target STAT3 phosphorylated at Y705 (pSTAT3 Y705) (mouse (endogenous in mouse colonic IECs)) (UniProt P42227). Description: co-IP.

Regarding YAP (from UniProt P46938 1-488), the binding result was “binds”.
